We go through two substances from PMC11199634.

The chains behind the UniProt entries cited, without tags or fusion partners.
UniProt Q9NYF8: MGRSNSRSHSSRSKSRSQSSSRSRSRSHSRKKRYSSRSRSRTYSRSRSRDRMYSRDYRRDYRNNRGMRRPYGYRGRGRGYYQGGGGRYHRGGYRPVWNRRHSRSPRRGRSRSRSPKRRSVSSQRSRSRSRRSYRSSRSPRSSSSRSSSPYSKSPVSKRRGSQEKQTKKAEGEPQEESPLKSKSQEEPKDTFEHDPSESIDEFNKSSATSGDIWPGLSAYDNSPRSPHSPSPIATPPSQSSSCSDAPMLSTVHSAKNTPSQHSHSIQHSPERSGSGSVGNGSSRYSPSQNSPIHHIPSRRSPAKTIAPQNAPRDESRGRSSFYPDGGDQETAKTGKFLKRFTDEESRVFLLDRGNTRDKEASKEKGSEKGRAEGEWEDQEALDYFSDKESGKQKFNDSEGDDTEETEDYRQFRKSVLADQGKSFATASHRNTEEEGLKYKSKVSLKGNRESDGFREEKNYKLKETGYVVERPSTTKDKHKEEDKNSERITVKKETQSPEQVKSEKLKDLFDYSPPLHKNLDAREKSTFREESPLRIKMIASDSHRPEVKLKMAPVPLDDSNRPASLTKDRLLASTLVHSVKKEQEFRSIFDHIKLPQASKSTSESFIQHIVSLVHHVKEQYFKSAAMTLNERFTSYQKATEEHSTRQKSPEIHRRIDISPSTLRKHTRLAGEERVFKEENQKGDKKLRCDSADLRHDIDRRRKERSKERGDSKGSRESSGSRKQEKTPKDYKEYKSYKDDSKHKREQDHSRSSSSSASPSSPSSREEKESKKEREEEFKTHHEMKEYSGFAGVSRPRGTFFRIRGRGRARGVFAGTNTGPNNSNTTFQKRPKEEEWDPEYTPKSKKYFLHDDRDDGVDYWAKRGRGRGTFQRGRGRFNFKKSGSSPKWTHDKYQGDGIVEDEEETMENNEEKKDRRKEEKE
UniProt O60927: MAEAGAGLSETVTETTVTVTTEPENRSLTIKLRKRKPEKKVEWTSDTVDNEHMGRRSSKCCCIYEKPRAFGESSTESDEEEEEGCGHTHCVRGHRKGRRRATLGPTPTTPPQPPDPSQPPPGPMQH

Assay [1] has as its target T1, EGFP-SDS22-WT (human) (UniProt Q15435).
T1 sequence: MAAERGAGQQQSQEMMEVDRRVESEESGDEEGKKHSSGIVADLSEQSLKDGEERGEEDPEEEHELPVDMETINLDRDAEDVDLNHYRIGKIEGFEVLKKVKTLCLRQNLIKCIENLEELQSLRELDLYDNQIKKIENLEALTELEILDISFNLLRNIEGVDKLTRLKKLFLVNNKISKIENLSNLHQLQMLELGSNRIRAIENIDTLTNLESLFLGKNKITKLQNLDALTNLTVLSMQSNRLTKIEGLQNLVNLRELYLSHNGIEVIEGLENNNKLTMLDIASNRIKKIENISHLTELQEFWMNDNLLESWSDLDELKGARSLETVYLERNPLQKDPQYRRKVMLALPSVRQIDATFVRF
In words: co-IP; ectopically expressed SDS22-WT, SDS22-KR7A or a PP1–SDS22 fusion, pulldown (Supplementary Fig. 4h); tag and cells not given.

The next assay concerns the target T2, EGFP-SDS22-W302* (human) (UniProt Q15435).
T2 sequence: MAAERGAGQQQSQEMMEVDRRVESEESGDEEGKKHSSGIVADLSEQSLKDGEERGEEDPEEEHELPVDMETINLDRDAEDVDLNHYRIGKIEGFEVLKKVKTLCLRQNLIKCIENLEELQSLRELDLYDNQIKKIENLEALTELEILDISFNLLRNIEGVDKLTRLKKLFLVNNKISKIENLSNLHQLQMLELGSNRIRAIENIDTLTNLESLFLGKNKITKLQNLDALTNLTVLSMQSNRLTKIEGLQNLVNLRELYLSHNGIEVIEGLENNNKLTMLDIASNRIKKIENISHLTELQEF
In words: co-IP; EGFP-trap (anti-EGFP nanobodies on agarose, 2 h, 4 °C) of transiently expressed EGFP fusions from HEK293T lysates (20 mM Tris pH 7.9, 0.3 M NaCl, 0.5% Triton X-100); endogenous partners by immunoblot. (In general: Immunoblotting shows a protein as a band on a membrane.)

In assay [2] the target is T1, EGFP-SDS22-WT (human). The description is as above.

Results are given in words; binding and its absence hold for the method and conditions named. In cells and extracts the contact can be indirect. Some results given as binding are weak or reduced against the parent protein; the word gives no strength. Tags and fused reporters may be left off the sequences shown.

As for “BCLAF1 (endogenous, HEK293T) (from UniProt Q9NYF8 1-920)”, the binding result with EGFP-SDS22-WT (human) [1] is on record as “binds”; in the assay with EGFP-SDS22-W302* (human), “no binding”; with EGFP-SDS22-WT (human) [2], “binds”.
Turning to “Inhibitor-3 (endogenous, HEK293T) (from UniProt O60927 1-126)”, the binding entry with EGFP-SDS22-WT (human) [1] is reported as “binds”; in the assay with EGFP-SDS22-W302* (human), “no binding”; with EGFP-SDS22-WT (human) [2], “binds”.
